Article PMC5334656, “McMYB12 Transcription Factors Co-regulate Proanthocyanidin and Anthocyanin Biosynthesis in Malus Crabapple”
No signal at the amounts used counts as a negative. At least one verdict rests on a figure or table, not on a statement of the authors. Where a protein sequence is shown, tags need not be part of it.

Experiments:
[1] = target: T1, McMYB12b (Malus crabapple) (UniProt X2EZI4); assay: competition with a labelled probe; details: 1000-fold mutant probe; LightShift Chemiluminescent EMSA Kit per manufacturer; 10 ug protein, 25 pmol biotin probe, 10- to 1000-fold competitor; pH and temperature not stated; recombinant protein; residues 1-374; label: biotin (text ambiguous)
T1 sequence (looked up): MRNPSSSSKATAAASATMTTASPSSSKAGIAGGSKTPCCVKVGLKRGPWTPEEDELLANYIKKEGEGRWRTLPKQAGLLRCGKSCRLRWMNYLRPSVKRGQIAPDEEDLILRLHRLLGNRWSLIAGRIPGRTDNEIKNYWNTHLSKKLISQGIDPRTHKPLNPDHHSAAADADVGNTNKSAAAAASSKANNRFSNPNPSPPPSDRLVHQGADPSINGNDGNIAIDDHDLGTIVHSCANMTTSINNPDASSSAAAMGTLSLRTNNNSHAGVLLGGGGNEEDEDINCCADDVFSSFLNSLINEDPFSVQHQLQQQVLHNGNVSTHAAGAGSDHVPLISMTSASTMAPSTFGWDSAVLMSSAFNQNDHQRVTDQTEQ

[2] = target: T2, McMYB12a (Malus crabapple) (UniProt X2EXK4); assay: competition with a labelled probe; details: 1000-fold mutant probe; LightShift Chemiluminescent EMSA Kit per manufacturer; 10 ug protein, 25 pmol biotin probe, 10- to 1000-fold competitor; pH and temperature not stated; recombinant protein; residues 1-364; label: biotin (text ambiguous)
T2 sequence (looked up): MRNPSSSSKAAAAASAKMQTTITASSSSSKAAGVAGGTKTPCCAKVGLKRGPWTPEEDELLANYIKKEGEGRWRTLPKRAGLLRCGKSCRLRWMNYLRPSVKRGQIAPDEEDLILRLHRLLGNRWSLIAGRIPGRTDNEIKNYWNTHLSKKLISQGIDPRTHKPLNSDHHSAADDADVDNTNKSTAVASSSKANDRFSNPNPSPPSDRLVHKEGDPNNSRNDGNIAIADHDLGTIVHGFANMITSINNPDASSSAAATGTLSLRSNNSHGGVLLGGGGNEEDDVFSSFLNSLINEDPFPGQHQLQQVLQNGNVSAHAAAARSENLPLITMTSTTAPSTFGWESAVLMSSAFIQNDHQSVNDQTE

| Sequence | binding result [1] | binding result [2] |
| --- | --- | --- |
| AAGTATGGTATAAACACAGACTAAGCCTCATTATCAGATACATATCAT (double strand) [proMcLAR2 mutant probe] | no binding | no binding |
| GGACAGAAATTGTACATACACCCTTTTCGTTAATGTTGCAAACTGAGT (double strand) [proMcLAR1 mutant probe] | no binding |  |
| ATTCTGAGTACTGTAGCACAAGTTGAAGTTGAATAATTGACGTCGTC (double strand) [proMcANR1 mutant probe] | no binding | no binding |
| ATTGGGAGATATGTGCTCGTTTTAGAGTGCTTTTAAAATCAATTAAAAC (double strand) [proMcANR2 mutant probe] | no binding | no binding |
| GCAACTCCTCCCATCAGTGTGGATCAAGCCACATACCCCGACTATTACT (double strand) [proMcCHS mutant probe] |  | no binding |
| AGATCATTGCTCCTATTGGCTAAAATTAAGTGACCATTACTATAAT (double strand) [proMcANS mutant probe] | no binding | no binding |
